Measurements as given in patent US8828696B2, “Use of Penicillin G Procaine as a selective antimicrobial agent in the production of alcohol by fermentation” (Lallemand Specialites, Inc, priority 2008, dated 2014).

Experiment: Residual level detection in post fermentation derivatives (Central Analytical Laboratories)
Conditions: introduced at 0.785 ppm, detection level 1.5 ppm minimum

Row | Compound | residual level of antibiotic (Centrifuge Solid) | residual level of antibiotic (DDGS) | residual level of antibiotic (Syrup) | residual level of antibiotic (WDGS)
1 | CC1(C)S[C@@H]2[C@H](NC(=O)Cc3ccccc3)C(=O)N2[C@H]1C(=O)O.CCN(CC)CCOC(=O)c1ccc(N)cc1 [Penicillin G Procaine] | None detected | None detected | None detected | None detected
2 | Virginiamycin | None detected** | None detected | 3.3 ppm | 2.8 ppm
